Amino acid sequences for entries named in this document (tags omitted).
UniProt Q0JBA9, entry or part of it: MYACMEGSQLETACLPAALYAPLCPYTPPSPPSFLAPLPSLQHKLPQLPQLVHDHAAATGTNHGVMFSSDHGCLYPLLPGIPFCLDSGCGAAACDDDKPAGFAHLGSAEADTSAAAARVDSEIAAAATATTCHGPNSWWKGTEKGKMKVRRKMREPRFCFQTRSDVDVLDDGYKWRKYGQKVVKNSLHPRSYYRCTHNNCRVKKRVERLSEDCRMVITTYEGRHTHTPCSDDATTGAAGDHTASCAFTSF

The other results are listed elsewhere or left out.
These sequences were tested against OsWRKY34 (Oryza sativa, UniProt Q0JBA9 1-250) (assay: protein-binding microarray (RPBM); PBS, 2% BSA, 51.3 ng/ul salmon testes DNA, 50 uM zinc acetate, 200 nM TF, 25 C, 1 h; high values mean tight binding). Conditions: protein: recombinant; tags: N-terminal polyhistidine and DsRed monomer fusion (pET32a); label: CyDye5-dUTP incorporated in the synthesized complementary strand; 3' TTTTT single-stranded linker to array surface; dsDNA, one strand shown.
How it was run: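 Transcription factors were made in E. coli BL21-CodonPlus as N-terminal fusions to a polyhistidine tag and DsRed, then purified on Ni–NTA. After primer extension with Cy5-dUTP and blocking with 2% BSA, a custom Agilent array was exposed for 1 h at 25 °C to 200 nM protein in PBS, 2% BSA, salmon testes DNA and 50 µM zinc acetate. Washed arrays were scanned on an Axon 4000B, and the binding signal is per-feature fluorescence intensity in arbitrary units.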
For “GGGTGATGTGTTGTATCCGGTTTTACGGTTCAGGGACCAACGGAGTCACCTAGTGCAG”, the binding signal was 11000 fluorescence intensity (a.u.).
For “CTTGCTACCTGAGCTCCTCGCCGCATATACTCTCTCTCTCCGGAGTCACCTAGTGCAG”, the binding signal was 10200 fluorescence intensity (a.u.).
With “TATGACGTCGTTGACTTTTTAACCAACGTTTGACCATCGTCGGAGTCACCTAGTGCAG” the binding signal was 32900 fluorescence intensity (a.u.).
In the case of “CAATGACCATACGTATACTCGGCTGACTGCAGTTCTGCCGCGGAGTCACCTAGTGCAG”, the binding signal is reported as 8190 fluorescence intensity (a.u.).
For “TTACTCGTGGAACACGAACCACCACGAACCTGTTTTGCATCGGAGTCACCTAGTGCAG”, the binding signal was 8230 fluorescence intensity (a.u.).
For “TTCCGGCACATCCTTCGTCGCGCTCGTCGCCACATCGCTTCGGAGTCACCTAGTGCAG”, the binding signal was 8880 fluorescence intensity (a.u.).
For “ATCATTCATGCGCGTCTGGCTGCCCACTCCGCATATTCTGCGGAGTCACCTAGTGCAG”, the binding signal was 8650 fluorescence intensity (a.u.).
For “GTCTTTCGCCGCCGCCTCTGCCTCTCGCCGATTCGCCATGCGGAGTCACCTAGTGCAG”, the binding signal was 11500 fluorescence intensity (a.u.).
With “ACCACCACTCGGCCACCCACCGGTCCTTGTCCAATTCGCTCGGAGTCACCTAGTGCAG” the binding signal was 11000 fluorescence intensity (a.u.).
“TTCCTTTCTTTCCCTGCTAATTGCTACCTCATCTATCCCTCGGAGTCACCTAGTGCAG” was tested, and the binding signal was 10100 fluorescence intensity (a.u.).
“TGCTCATGGTCATTTTATTGCCGGCTTCTGCTTCAGGCTACGGAGTCACCTAGTGCAG” was tested, and the binding signal was 8490 fluorescence intensity (a.u.).
With “AATGACTGACTTTTTCAATCCTTTCGACCTTGGTTCCGTACGGAGTCACCTAGTGCAG” the binding signal was 9670 fluorescence intensity (a.u.).
For “CCACCACCACACCACCACCGGTCGCCTACTCGCCTTCGCCCGGAGTCACCTAGTGCAG”, the binding signal was 9610 fluorescence intensity (a.u.).
“GCGAGTCCCGAACTTCCAATCTTGCCGCCGCCGCGTCAGCCGGAGTCACCTAGTGCAG” was tested, and the binding signal was 8830 fluorescence intensity (a.u.).
With “TTCCATTTTGCTGTTTTTTAGCCTCGTGTTTTACCGTGTTCGGAGTCACCTAGTGCAG” the binding signal was 9030 fluorescence intensity (a.u.).
For “ACTTTTTATACGCAACTTTCATTGCATATATTTTACTTTTCGGAGTCACCTAGTGCAG”, the binding signal was 9540 fluorescence intensity (a.u.).
With “TATGTAGTTGAACCATCCTCTCTTTTTGTCCTTTGCTACTCGGAGTCACCTAGTGCAG” the binding signal was 9120 fluorescence intensity (a.u.).
“ATTCGATCGCCTGGCTTATCCACCCTAACAAAAGCTTTAACGGAGTCACCTAGTGCAG” was tested, and the binding signal was 9540 fluorescence intensity (a.u.).
For “TTGTGGCTCAATCGAAATTGGTCTTTGTTCAATTGTTCTTCGGAGTCACCTAGTGCAG”, the binding signal was 8150 fluorescence intensity (a.u.).
With “GCCAACCCGCGCCGCGTCTCCTCCTCGTCGTCGCAACCCGCGGAGTCACCTAGTGCAG” the binding signal was 9200 fluorescence intensity (a.u.).
“TAACTGACTCCACCAACTCCTCTTCCCATCAACACCATTCCGGAGTCACCTAGTGCAG” was tested, and the binding signal was 8160 fluorescence intensity (a.u.).
For “AATTTCGTTTTTAATACGCCCAGTGAAATTTGCTGTCTAGCGGAGTCACCTAGTGCAG”, the binding signal was 17500 fluorescence intensity (a.u.).
In the case of “CTAGTCGTTTGGTGGCTTCAATTGAATTGACATGTAACCTCGGAGTCACCTAGTGCAG”, the binding signal is reported as 10400 fluorescence intensity (a.u.).
With “AATTCTCAGTGATACTATTATGCTTTTCGGTCAGTTGTTTCGGAGTCACCTAGTGCAG” the binding signal was 8680 fluorescence intensity (a.u.).
“ATCAATCCCATATAAACTGGACTAGGGCTATTACCTGATACGGAGTCACCTAGTGCAG” was tested, and the binding signal was 8380 fluorescence intensity (a.u.).
“CGACGAGATGGTGATGAGGTGGTGGTGGTGGTGGACTGGTCGGAGTCACCTAGTGCAG” was tested, and the binding signal was 13300 fluorescence intensity (a.u.).
“TCCAAGTGTACAACGTGATCTCCATCCCTTCAATTTTTCTCGGAGTCACCTAGTGCAG” was tested, and the binding signal was 8690 fluorescence intensity (a.u.).
“CCGATCTCCATCTCTTAGAGTCTGCCATGTTATCTCATAACGGAGTCACCTAGTGCAG” was tested, and the binding signal was 9050 fluorescence intensity (a.u.).
For “CACTTTCCTTTTTTAAAATTTTTAATGTTTATTACAATTGCGGAGTCACCTAGTGCAG”, the binding signal was 8890 fluorescence intensity (a.u.).
With “TTATTTTTAGTTAATTTCATAATTTGTACTGATTAATTTACGGAGTCACCTAGTGCAG” the binding signal was 9280 fluorescence intensity (a.u.).
With “CAACTAATTCTTCTTCTTCTTTTGTTTGGCACGGCCCATACGGAGTCACCTAGTGCAG” the binding signal was 8590 fluorescence intensity (a.u.).
For “GTTCATCGTTGTGCTCAGCTGCTATTAGCCCATGTCAAGACGGAGTCACCTAGTGCAG”, the binding signal was 8440 fluorescence intensity (a.u.).
With “TATGCTGGTTAGTGTTGCTTTTCTTGGTAATATTTAAGGTCGGAGTCACCTAGTGCAG” the binding signal was 9800 fluorescence intensity (a.u.).
“ACTATGTAATTTCTCATCTTTGTTAGGTTGGTTTTTTATTCGGAGTCACCTAGTGCAG” was tested, and the binding signal was 11200 fluorescence intensity (a.u.).
“CTAGGCTGAGTCATTCTCTTATCCAATCGCCCTTGCTTATCGGAGTCACCTAGTGCAG” was tested, and the binding signal was 12200 fluorescence intensity (a.u.).
For “TTTATGTAGTTCACTCAAACGGCAATTCCTGTGTTTTTCCCGGAGTCACCTAGTGCAG”, the binding signal was 8360 fluorescence intensity (a.u.).
In the case of “AGTAATGGTTGAAGTGTGTTTAGTTTGTTGCCTTACCAAACGGAGTCACCTAGTGCAG”, the binding signal is reported as 8320 fluorescence intensity (a.u.).
For “CCCAGTCTGTGTGTGAGTGTGTGTGGTCTGTGGAGTGTATCGGAGTCACCTAGTGCAG”, the binding signal was 9130 fluorescence intensity (a.u.).
With “ATTATCAAAACATGCACATCTTCCTGTTTCGCTTAAGTCTCGGAGTCACCTAGTGCAG” the binding signal was 8910 fluorescence intensity (a.u.).
“TTTTTATGTTACATATTTTTTTGTTTTGTTTACCAGTATACGGAGTCACCTAGTGCAG” was tested, and the binding signal was 11100 fluorescence intensity (a.u.).
With “TTCACTCTTCTTCTCTCGTACTCCACTGTACTGCACCTACCGGAGTCACCTAGTGCAG” the binding signal was 9480 fluorescence intensity (a.u.).
With “CGGGATATGATACACTCGTCGCAACGTTCGAATTCTCCGTCGGAGTCACCTAGTGCAG” the binding signal was 8730 fluorescence intensity (a.u.).

Source: publication PMC7819943, “Rice protein-binding microarrays: a tool to detect cis-acting elements near promoter regions in rice”
